The campaign covered roughly 320,000 compounds. About 22,000 (6.9%) were called active. Inconclusive means that the source gave no clear call. Such entries were picked first, then a sample of the others. Calls come from the whole dose curve; as a rule, active = well fitted inhibition curve with a large enough effect; inconclusive = small, poorly fitted or top-dose-only effect, or another doubt; inactive = no such curve, though single readings can be large or run the other way. Potencies of inconclusive entries are doubtful fits and often do not repeat.
Assay: Primary qHTS for delayed death inhibitors of the malarial parasite plastid, 96 hour incubation
Conditions: P. falciparum luciferase reporter growth; series mostly up to 28.7 µM; activity change, negative = inhibition: at the top concentration
Outline: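 Infected RBCs, 2% Hct / 0.05% parasitemia final; luciferase-reporter P. falciparum; cpd 96 h, 37 C, 5% CO2; luciferase detection reagent; luminescence.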
% is set by controls: 0 for no effect and ±100 for the full control effect; potency is the fitted concentration of half-maximal effect.

Row | Structure (SMILES) | Potency | activity change, negative = inhibition
1 | Cc1ccc(NC(=O)CCS(=O)(=O)c2cc3[nH]c(=O)c(=O)[nH]c3cc2C)cc1 | active: 4.15 µM | 
2 | COc1ccccc1-c1c(C)nn2c(N3CCC(C(N)=O)CC3)cc(C)nc12 | inconclusive: 18.5 µM [inhibitor, single point] | 
3 | O=C(O)C1OC2OC3(CCCCC3)OC2C2OC3(CCCCC3)OC12 (stereo unspecified) | active: 1.47 µM | 
4 | Cc1c(Cl)cccc1NS(=O)(=O)c1cccc2nsnc12 |  | inactive: 7.43%
5 | CCNc1nc(N)c(C(=O)C23CC4CC(CC(C4)C2)C3)s1 | inconclusive: 5.22 µM [inhibitor, partial curve, poor fit] | 
6 | C=CCn1c(C)c(C(C)=O)c(N2CCN(c3ccccc3)CC2)nc1=S | inconclusive: 2.94 µM [inhibitor, partial curve, poor fit] | 
7 | O=C(Nc1ccccc1F)c1cc(S(=O)(=O)N2CCOCC2)cs1 |  | inactive: 58.3%
8 | COc1nccnc1NS(=O)(=O)c1ccc(NC(=O)c2ccccc2Br)cc1 | inconclusive: 10.4 µM [inhibitor, single point] | 
9 | CC(C)c1nc(SCC(=O)NC(=O)NC(C)(C)C)n[nH]1 | inconclusive: 10.4 µM [inhibitor, single point] | 
10 | Cc1cc(C)cc(NC(=S)Nc2ccccn2)c1 | inconclusive: 0.522 µM [inhibitor, full curve, poor fit] | 
11 | CCCSc1nnc(NC(=O)Cc2ccc(OC)c(OC)c2)s1 | inconclusive: 4.15 µM [inhibitor, partial curve, poor fit] | 
12 | CCc1ccccc1NC(=S)/N=C(\N)Nc1nc(C)c2cc(C)ccc2n1 | inconclusive: 18.5 µM [inhibitor, single point] | 
13 | CCn1nc(C)c(Br)c1-c1nc(-c2ccc(C)cc2)no1 |  | inactive: -6.66%
14 | CCOC(=O)c1ccc(NC(=O)NCc2cccnc2)cc1 | inconclusive: 18.5 µM [inhibitor, single point] | 
15 | C/C(=N\OC(=O)c1c(-c2ccccc2Cl)noc1C)c1nccs1 | inconclusive: 14.7 µM [inhibitor, single point] | 
16 | CC(=O)O[C@H]1C[C@@]2(C)[C@@H](C[C@@H](O)[C@H]3[C@@]4(C)CC[C@@H](O)[C@@H](C)[C@@H]4CC[C@@]32C)/C1=C(\CCC=C(C)C)C(=O)O | inconclusive: 2.62 µM [inhibitor, full curve, poor fit] | 
17 | Nc1nn2cc(-c3ccc(Br)cc3)nc2c2ccccc12 |  | inactive: 80.1%
18 | Cc1cc2c(=O)n(C)c(SCC(=O)Nc3ccccc3C)nc2s1 | active: 9.28 µM | 
19 | Cn1cc(S(=O)(=O)N2CCCC2)cc1C(=O)NCc1ccccc1 |  | inactive: -7.41%
20 | O=C(NC1CCN(C(=O)Nc2ccccc2Cl)CC1)c1ccco1 | inconclusive: 1.04 µM [inhibitor, partial curve, poor fit] | 
21 | CCOC(=O)c1c(C)[nH]c(C(=O)CN2C(=O)NC(C)(c3ccc4ccccc4c3)C2=O)c1C (stereo unspecified) | active: 5.22 µM | 
22 | C=CCNC(=O)c1c(N)n(-c2ccc3c(c2)OCO3)c2nc3ccccc3nc12 | inconclusive: 10.4 µM [inhibitor, single point] | 

By substructure: the compounds so far with bromine
Row | Structure (SMILES) | Potency | activity change, negative = inhibition
8 | COc1nccnc1NS(=O)(=O)c1ccc(NC(=O)c2ccccc2Br)cc1 | inconclusive: 10.4 µM [inhibitor, single point] | 
13 | CCn1nc(C)c(Br)c1-c1nc(-c2ccc(C)cc2)no1 |  | inactive: -6.66%
17 | Nc1nn2cc(-c3ccc(Br)cc3)nc2c2ccccc12 |  | inactive: 80.1%

The list goes on.

Row | Structure (SMILES) | Potency | activity change, negative = inhibition
23 | CN1CCN(c2nc(-c3ccccc3)nc(-c3ccc(F)cc3)c2C#N)CC1 | inconclusive: 4.15 µM [inhibitor, partial curve, poor fit] | 
24 | O=C(Cc1cccs1)N1CCN(c2nc(-c3ccc(Cl)cc3)cs2)CC1 |  | inactive: 106%
25 | COc1ccc(NC(=O)c2cc(S(=O)(=O)N3CCCC3)oc2C)cc1 |  | inactive: 13.5%
26 | COc1ccccc1NC(=O)NCC1CC1(Cl)Cl (stereo unspecified) | inconclusive: 18.5 µM [inhibitor, single point] | 
27 | O=C(c1ccccc1)c1ccccc1C(=O)N1CCN(Cc2ccccc2F)CC1 | inconclusive: 0.0037 µM [inhibitor, full curve, poor fit] | 
28 | S=C1NC2=C(CCC/C2=C\c2ccc(Cl)cc2)C(c2ccc(Cl)cc2)N1 (stereo unspecified) | inconclusive: 2.33 µM [inhibitor, full curve] | 
29 | CCN(CC)CCNC(=O)Cn1cnc2sc(C)c(S(=O)(=O)N3CCC(C)CC3)c2c1=O | inconclusive: 6.57 µM [inhibitor, partial curve] | 
30 | Cc1ccc(CN2CC(C(=O)NCCC3=CCCCC3)CC2=O)cc1 (stereo unspecified) | inconclusive: 18.5 µM [inhibitor, single point] | 
31 | CSc1cccc(NC(=S)N2CCC(N(C)C3CCCC3)CC2)c1 | inconclusive: 5.22 µM [inhibitor, partial curve, poor fit] | 
32 | COc1cc(/C=C2\N=C(C)OC2=O)cc(OC)c1OC |  | inactive: 5.19%
33 | CC(C)OCCCNC(=O)c1ccc2c(=O)n(Cc3ccc4c(c3)OCO4)c(=S)[nH]c2c1 |  | inactive: 26.8%
34 | COc1cc2c(cc1OC)[C@@]13CCN4CC5=CCOC6CC(=O)N2C1[C@H]6[C@@H]5C[C@@H]43 (stereo partly specified) | inconclusive: 13.5 µM [inhibitor, single point] | 
35 | O=C(Nc1cccc([N+](=O)[O-])c1)C1CCN(C(=O)Cc2ccccc2)CC1 |  | inactive: 55.1%
36 | NC(=O)CC(NC(=O)Cc1ccc(Br)cc1)c1ccc(NCc2cc(F)ccc2F)c([N+](=O)[O-])c1 (stereo unspecified) | inconclusive: 10.4 µM [inhibitor, single point] | 
37 | O=C(NC1CCN(Cc2ccccc2)CC1)c1ccc(CS(=O)c2ccc(F)cc2)o1 (stereo unspecified) | inconclusive: 14.7 µM [inhibitor, single point] | 
38 | CCc1ccccc1-n1cnc2cc(C(=O)O)ccc21 | inconclusive: 4.65 µM [inhibitor, partial curve, poor fit] | 
39 | COc1cc2c(cc1OC)C(C)N(S(=O)(=O)c1cnc(Cl)c(Cl)c1)CC2 (stereo unspecified) | inconclusive: 11.7 µM [inhibitor, single point] | 
40 | CC(=N\Nc1ccccc1)/C(=N/O)C(=O)Nc1ccccc1 |  | inactive: 61.9%
41 | N#CC1(C#N)CC(C=O)=C(N)C1(C#N)CC(=O)C12CC3CC(CC(C3)C1)C2 (stereo unspecified) | inconclusive: 13.1 µM [inhibitor, single point] | 
42 | COc1ccc2c(c1)c(=O)c(C(=O)c1ccc(C)cc1)cn2CC(=O)Nc1ccc(F)cc1 | inconclusive: 11.7 µM [inhibitor, single point] | 
43 | O=C(NCc1nc2ccccc2[nH]1)C1=C[C@@H](c2csc3ccccc23)C[C@@H](OCCCCO)O1 | active: 2.08 µM | 
44 | O=C1NC2(CCOc3ccccc32)C(=O)N1CC(=O)N(Cc1ccccc1)C1CCS(=O)(=O)C1 (stereo unspecified) | inconclusive: 3.7 µM [inhibitor, single point] | 

Pulled one by one from the entries so far, 2 records:
Row | Structure (SMILES) | Potency | activity change, negative = inhibition
5 | CCNc1nc(N)c(C(=O)C23CC4CC(CC(C4)C2)C3)s1 | inconclusive: 5.22 µM [inhibitor, partial curve, poor fit] | 
39 | COc1cc2c(cc1OC)C(C)N(S(=O)(=O)c1cnc(Cl)c(Cl)c1)CC2 (stereo unspecified) | inconclusive: 11.7 µM [inhibitor, single point] | 

Continuation.

Row | Structure (SMILES) | Potency | activity change, negative = inhibition
45 | Cc1cc(C)c(C)c(S(=O)(=O)N2CCC(C(=O)N3CCCC3)CC2)c1C | active: 11.7 µM | 
46 | CCN(CC)c1ccc2cc(S(=O)(=O)c3ccc(C)cc3)c(=O)oc2c1 | inconclusive: 11.7 µM [inhibitor, single point] | 
47 | O=C(NCCCN1CCCC1)c1ccc(CSCc2cccc(Cl)c2)o1 | inconclusive: 14.7 µM [inhibitor, partial curve, poor fit] | 
48 | CC(=O)c1cccc(NCC(=O)c2ccc(C)c([N+](=O)[O-])c2)c1 | inconclusive: 13.1 µM [inhibitor, single point] | 
49 | Cc1ccc(S(=O)(=O)NCCOc2nc(N(C)C)nc(N(C)C)n2)cc1 | inconclusive: 8.28 µM [inhibitor, partial curve] | 
50 | O=C(NC1CCCC1)c1ccc(CS(=O)Cc2ccc(Cl)cc2)o1 (stereo unspecified) | inconclusive: 18.5 µM [inhibitor, single point] | 
51 | COc1ccc(C(=O)c2ccc(N(C)C)cc2)c2ccccc12 |  | inactive: 9.16%
52 | N#C/C(=C\c1ccc(O)c(O)c1)C(=O)NCCc1ccccc1 | inconclusive: 18.5 µM [inhibitor, single point] | 
53 | COc1cccc(OCCn2cc(C(C)=O)c3ccccc32)c1 | inconclusive: 18.5 µM [inhibitor, single point] | 
54 | Cc1cc(Cl)ccc1OCC(=O)NCCCN1CCOCC1 | inconclusive: 11.7 µM [inhibitor, single point] | 
55 | CCOC(=O)Cc1csc(NC(=S)NC(=O)c2ccc(F)cc2)n1 | inconclusive: 2.33 µM [inhibitor, partial curve] | 
56 | COc1ccc(N(CC(O)CN2CCOCC2)S(=O)(=O)c2ccccc2)cc1 (stereo unspecified) | inconclusive: 18.5 µM [inhibitor, single point] | 
57 | C=CCOc1cccc(C2C(C(=O)c3ccc(C)o3)=C(O)C(=O)N2c2nnc(C)s2)c1 (stereo unspecified) | inconclusive: 5.22 µM [inhibitor, partial curve] | 
58 | COc1ccc([N+](=O)[O-])cc1NS(=O)(=O)Cc1ccccc1 |  | inactive: 2.97%
59 | COc1cc2c(cc1OC)CN(C(=O)CNC(=O)c1ccc(OC(F)F)cc1)CC2 | inconclusive: 11.7 µM [inhibitor, partial curve] | 
60 | Cc1cc(C)n(C(=O)c2ccc(C)c(F)c2F)n1 |  | inactive: -9.78%
61 | CC(=O)c1sc2nsc(SCCN3CCCC3)c2c1N | inconclusive: 4.15 µM [inhibitor, partial curve, poor fit] | 
62 | Cc1ccc(/C=C/C(=O)O)cc1S(=O)(=O)N1CCC(Cc2ccccc2)CC1 | inconclusive: 18.5 µM [inhibitor, single point] | 
63 | COc1ccc(NC(=O)CN2C(=O)CSc3ncccc32)cc1 | inconclusive: 13.1 µM [inhibitor, partial curve] | 
64 | CCOC(=O)C1=C(C)NC(SCC(N)=O)=C(C#N)C1c1ccccc1 (stereo unspecified) | inconclusive: 0.104 µM [inhibitor, full curve, poor fit] | 
65 | COc1ccc(N2CCN(C(CNC(=O)c3ccc4c(c3)OCO4)c3cccnc3)CC2)cc1 (stereo unspecified) | inconclusive: 0.165 µM [inhibitor, full curve, poor fit] | 
66 | NC(=O)CCC1NC(=S)N(Cc2ccccc2)C1=O (stereo unspecified) |  | inactive: 17.3%

— PubChem BioAssay AID504834 (National Center for Advancing Translational Sciences (NCATS), 2011)
